± gives the standard deviation of the averaged measurements. Most entries show no effect beyond the scatter of the controls.
How the values were obtained:
Assay in all cases: level (log10 ratio to DMSO vehicle control); higher = higher biomarker level / cell amount than vehicle control
[1] = compound: C=C(C)C(=O)OCC(F)(F)C(F)(F)C(F)(F)F [2,2,3,3,4,4,4-Heptafluorobutyl methacrylate]; settings: 2200 nM; in DMSO
Experimental: (§1)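 BioMAP Diversity Plus panel of 12 human primary cell co-culture systems (3C, 4H, LPS, SAg, BT, BF4T, BE3C, CASM3C, HDF3CGF, KF3CT, MyoF, Mphg). Compounds were added 1 h before stimulation and left for 24 h (MyoF 48 h; BT 72 h for soluble read-outs or 6 d for IgG). Biomarkers were read by ELISA, cytotoxicity by SRB, PBMC viability and proliferation by Alamar Blue. Each well value was divided by the mean of 8 DMSO control wells on the same plate and log10 transformed; duplicate blinded samples were tested at 4 concentrations.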

[2] = compound: OCC(F)(F)C(F)(F)C(F)(F)C(F)(F)C(F)(F)C(F)(F)C(F)(F)C(F)(F)C(F)(F)C(F)(F)C(F)(F)F [11:1 Fluorotelomer alcohol]; settings: in DMSO
Experimental: as §1

[3] = compound: O=C(O)C=CC(F)(C(F)(F)F)C(F)(F)F [3-(Perfluoroisopropyl)-2-propenoic acid]; settings: in DMSO
Experimental: as §1

[4] = compound: C=CC(=O)OCC(F)(F)C(F)(F)C(F)(F)C(F)(F)COC(=O)C=C [1H,1H,6H,6H-Perfluorohexane-1,6-diol diacrylate]; settings: 2200 nM; in DMSO
Experimental: as §1

[5] = compound: O=C(O)C(F)(F)OC(F)(F)C(F)(F)OC(F)(F)C(F)(F)C(F)(F)C(F)(F)F [Perfluoro-3,6-dioxadecanoic acid]; settings: 2200 nM; in DMSO
Experimental: as §1

[6] = compound: O=C(O)C(F)(F)C(F)(F)C(F)(F)C(F)(F)C(F)(F)C(F)(F)C(F)(F)C(F)F [9-H-Perfluorononanoic acid]; settings: 2200 nM; in DMSO
Experimental: as §1

[7] = compound: FC(F)C(F)(F)COCC1CO1 [((2,2,3,3-Tetrafluoropropoxy)methyl)oxirane]; settings: 2200 nM; in DMSO
Experimental: as §1

Perfluoropropanoic acid = compound: O=C(O)C(F)(F)C(F)(F)F [Perfluoropropanoic acid]; settings: 2200 nM; in DMSO
Experimental: as §1

[8] = compound: O=C(O)C(F)(F)OC(F)(F)C(F)(F)OC(F)(F)C(=O)O [Perfluoro-3,6-dioxaoctane-1,8-dioic acid]; settings: 2200 nM; in DMSO
Experimental: as §1

[9] = compound: O=P(O)(O)CCC(F)(F)C(F)(F)C(F)(F)C(F)(F)C(F)(F)C(F)(F)C(F)(F)C(F)(F)F [((Perfluorooctyl)ethyl)phosphonic acid]; settings: 2200 nM; in DMSO
Experimental: as §1

Perfluorobutanoic acid = compound: O=C(O)C(F)(F)C(F)(F)C(F)(F)F [Perfluorobutanoic acid]; settings: 2200 nM; in DMSO
Experimental: as §1

[10] = compound: OCCC(F)(F)C(F)(F)C(F)(F)C(F)(F)C(F)(F)C(F)(F)C(F)(F)C(F)(F)F [8:2 Fluorotelomer alcohol]; settings: 2200 nM; in DMSO
Experimental: as §1

Perfluoroundecanoic acid = compound: O=C(O)C(F)(F)C(F)(F)C(F)(F)C(F)(F)C(F)(F)C(F)(F)C(F)(F)C(F)(F)C(F)(F)C(F)(F)F [Perfluoroundecanoic acid]; settings: in DMSO
Experimental: as §1

Perfluorooctanamide = compound: NC(=O)C(F)(F)C(F)(F)C(F)(F)C(F)(F)C(F)(F)C(F)(F)C(F)(F)F [Perfluorooctanamide]; settings: 2200 nM; in DMSO
Experimental: as §1

[11] = compound: FC(F)(F)C(F)(F)C(F)(F)C(F)(F)C(F)(F)C(F)(F)C(F)(F)I [1-Iodopentadecafluoroheptane]; settings: in DMSO
Experimental: as §1

[12] = compound: FC(F)(F)C(F)(F)C(F)(F)C(F)(F)C(F)(F)C(F)(F)C(F)(F)CCI [1-Iodo-1H,1H,2H,2H-perfluorononane]; settings: in DMSO
Experimental: as §1

[13] = compound: O=C(O)C(F)(F)C(F)(F)OC(F)(F)F [Perfluoro-3-methoxypropanoic acid]; settings: 2200 nM; in DMSO
Experimental: as §1

[14] = compound: O=S(=O)(Cl)C(F)(F)C(F)(F)C(F)(F)C(F)(F)C(F)(F)C(F)(F)C(F)(F)C(F)(F)F [Perfluoro-1-octanesulfonyl chloride]; settings: 2200 nM; in DMSO
Experimental: as §1

| Test System | level (log10) [1] | level (log10) ([2]; 370 nM) | level (log10) ([2]; 1100 nM) | level (log10) ([2]; 3300 nM) | level (log10) ([2]; 10000 nM) | level (log10) ([3]; 2200 nM) | level (log10) ([3]; 6700 nM) | level (log10) ([3]; 20000 nM) | level (log10) ([3]; 60000 nM) | level (log10) [4] | level (log10) [5] | level (log10) [6] | level (log10) [7] | level (log10) (Perfluoropropanoic acid) | level (log10) [8] | level (log10) [9] | level (log10) (Perfluorobutanoic acid) | level (log10) [10] | level (log10) (Perfluoroundecanoic acid; 740 nM) | level (log10) (Perfluoroundecanoic acid; 2200 nM) | level (log10) (Perfluorooctanamide) | level (log10) ([11]; 740 nM) | level (log10) ([11]; 2200 nM) | level (log10) ([11]; 6700 nM) | level (log10) ([11]; 20000 nM) | level (log10) ([12]; 740 nM) | level (log10) ([12]; 2200 nM) | level (log10) ([12]; 6700 nM) | level (log10) ([12]; 20000 nM) | level (log10) [13] | level (log10) [14] |
| --- | --- | --- | --- | --- | --- | --- | --- | --- | --- | --- | --- | --- | --- | --- | --- | --- | --- | --- | --- | --- | --- | --- | --- | --- | --- | --- | --- | --- | --- | --- | --- |
| 4H:CD106/VCAM-1 | 0.0165 ± 0.073 | 0.02 ± 0.021 | 0.0285 ± 0.022 | 0.0115 ± 0.057 | 0.024 ± 0.038 | 0.0205 ± 0.015 | 0.0275 ± 0.011 | -0.0175 ± 0.019 | 0.016 ± 0.0014 | -0.0105 ± 0.011 | 0.007 ± 0.035 | 0.0395 ± 0.081 | -0.007 ± 0.0099 | -0.0035 ± 0.018 | 0.013 ± 0.021 | 0.0035 ± 0.018 | -0.0185 ± 0.013 | 0.008 ± 0.018 | -0.004 ± 0.0042 | -0.02 ± 0.021 | -0.0035 ± 0.0021 | -0.014 ± 0.016 | -0.009 ± 0.0028 | -0.018 ± 0.0042 | -0.0005 ± 0.0035 | 0.015 ± 0.045 | 0.011 | -0.003 ± 0.027 | -0.0585 ± 0.083 | 0.001 ± 0.014 | 0.003 ± 0.031 |
| BF4T:CD54/ICAM-1 | 0.005 ± 0.024 | 0.011 ± 0.0057 | -0.0125 ± 0.005 | -0.015 ± 0.018 | -0.0015 ± 0.00071 | 0.017 ± 0.014 | 0.007 ± 0.0042 | -0.0005 ± 0.025 | 0.011 ± 0.0028 | -0.0195 ± 0.021 | -0.0055 ± 0.023 | -0.0225 ± 0.0021 | 0.0055 ± 0.018 | 0.016 ± 0.02 | 0.013 ± 0.011 | 0.009 ± 0.025 | 0.0085 ± 0.025 | -0.0045 ± 0.028 | 0.003 ± 0.017 | -0.001 ± 0.014 | -0.0175 ± 0.011 | 0.007 ± 0.0014 | -0.016 ± 0.0099 | 0.004 ± 0.011 | -0.0025 ± 0.013 | -0.003 ± 0.028 | -0.0095 ± 0.0092 | -0.007 ± 0.018 | -0.0345 ± 0.0064 | 0.007 ± 0.025 | -0.009 ± 0.016 |
| CASM3C:HLA-DR | 0.004 ± 0.037 | 0.014 ± 0.027 | 0.0075 ± 0.016 | 0.0015 ± 0.00071 | 0.0095 ± 0.0035 | 0.016 ± 0.081 | -0.033 ± 0.011 | -0.0465 ± 0.022 | 0.0095 ± 0.044 | 0.0715 ± 0.035 | -0.003 ± 0.0071 | -0.014 ± 0.023 | 0.019 ± 0.018 | -0.022 ± 0.027 | 0.0055 ± 0.061 | 0.0315 ± 0.084 | -0.0015 ± 0.005 | -0.002 ± 0.047 | -0.0055 ± 0.019 | -0.029 ± 0.0028 | 0.01 ± 0.0028 | -0.012 ± 0.0085 | -0.028 ± 0.0042 | -0.0255 ± 0.023 | 0.008 ± 0.023 | -0.0115 ± 0.022 | -0.0155 ± 0.018 | 0.0055 ± 0.0064 | -0.007 ± 0.0071 | -0.0025 ± 0.054 | -0.006 ± 0.045 |
| BT:sIL-6 | 0.0555 ± 0.028 | 0.1 ± 0.018 | 0.209 ± 0.0092 | 0.116 ± 0.034 | 0.083 ± 0.085 | 0.0285 ± 0.057 | 0.032 ± 0.089 | -0.0455 ± 0.056 | -0.025 ± 0.03 | -0.181 ± 0.059 | 0.0715 ± 0.0092 | -0.016 ± 0.0028 | 0.0495 ± 0.036 | -0.0105 ± 0.043 | -0.0405 ± 0.012 | 0.016 ± 0.089 | 0.05 ± 0.04 | 0.075 ± 0.031 | -0.0475 ± 0.021 | 0.0175 ± 0.016 | -0.019 ± 0.031 | -0.047 ± 0.031 | 0.029 ± 0.03 | -0.0825 ± 0.0078 | 0.024 ± 0.044 | 0.0085 ± 0.052 | -0.0435 ± 0.0021 | 0.009 ± 0.017 | -0.0575 ± 0.042 | 0.0085 ± 0.046 | 0.0155 ± 0.028 |
| SAg:CD62E/E-Selectin | 0.032 ± 0.0071 | 0.054 ± 0.041 | 0.045 ± 0.0057 | 0.0325 ± 0.018 | 0.0355 ± 0.035 | 0.0035 ± 0.025 | 0 ± 0.011 | 0.0045 ± 0.013 | -0.006 ± 0.0042 | -0.028 ± 0.023 | 0.0185 ± 0.029 | -0.009 ± 0.013 | 0.0185 ± 0.018 | 0.0035 ± 0.0064 | 0.015 ± 0.016 | 0.008 ± 0.035 | 0.0005 ± 0.022 | 0.0085 ± 0.023 | -0.0235 ± 0.015 | 0.0065 ± 0.039 | -0.0145 ± 0.013 | -0.0255 ± 0.023 | -0.0245 ± 0.046 | -0.0415 ± 0.056 | -0.008 ± 0.044 | -0.007 ± 0.0099 | -0.0075 ± 0.018 | 0 ± 0.014 | -0.0225 ± 0.053 | -0.0005 ± 0.0035 | -0.004 ± 0.0057 |
| CASM3C:LDLR | 0.021 ± 0.0042 | -0.0045 ± 0.00071 | -0.0055 ± 0.0021 | -0.0095 ± 0.0064 | 0 ± 0.035 | 0.0145 ± 0.052 | -0.006 ± 0.017 | -0.0045 ± 0.00071 | 0.008 ± 0.017 | -0.059 ± 0.033 | -0.003 ± 0.017 | 0.0075 ± 0.026 | -0.0125 ± 0.0078 | -0.0155 ± 0.016 | 0.039 ± 0.042 | 0.031 ± 0.037 | 0.006 ± 0.045 | -0.0075 ± 0.013 | -0.019 ± 0.024 | 0.0155 ± 0.039 | 0.0005 ± 0.015 | 0.0275 ± 0.021 | -0.0255 ± 0.021 | -0.002 ± 0.013 | -0.014 | 0.013 ± 0.014 | 0.0015 ± 0.0021 | -0.016 ± 0.021 | 0.026 ± 0.024 | 0.0235 ± 0.056 | -0.014 ± 0.013 |
| lMphg:SRB | -0.002 ± 0.0014 | -0.001 ± 0.0028 | 0.0045 ± 0.00071 | 0.001 | -0.0205 ± 0.005 | -0.0105 ± 0.0035 | -0.017 ± 0.0085 | -0.012 ± 0.0099 | -0.0085 ± 0.012 | -0.017 ± 0.011 | -0.0225 ± 0.035 | 0.0075 ± 0.005 | -0.0175 ± 0.005 | -0.015 ± 0.0071 | 0.005 ± 0.013 | 0.004 ± 0.0071 | -0.013 ± 0.031 | -0.001 ± 0.018 | 0.0015 ± 0.016 | -0.001 | -0.0085 ± 0.005 | -0.0005 ± 0.0092 | 0.0045 ± 0.0035 | -0.01 ± 0.0014 | -0.0015 ± 0.0021 | 0.0005 ± 0.0021 | -0.0055 ± 0.00071 | -0.002 ± 0.0071 | 0.0065 ± 0.005 | -0.001 ± 0.0014 | 0.01 ± 0.0085 |

Reference: the supplement of paper PMC10331698
